No constants are given. Whether binding was seen depends on the method and setting. Binding seen in cells or lysates may run through a third protein. Some binding calls cover weakened binding; strength is not graded here.
How the values were obtained:
[1] = molecular target: T1, protein numb homolog (NUMB) (rat (endogenous in H9C2)) (UniProt Q2LC84); assay: co-IP; cell lysates in Co-IP lysis buffer with protease inhibitor, 2 ug primary antibody or IgG, protein A/G beads overnight at 4°C, three washes, Western blotting
T1 sequence: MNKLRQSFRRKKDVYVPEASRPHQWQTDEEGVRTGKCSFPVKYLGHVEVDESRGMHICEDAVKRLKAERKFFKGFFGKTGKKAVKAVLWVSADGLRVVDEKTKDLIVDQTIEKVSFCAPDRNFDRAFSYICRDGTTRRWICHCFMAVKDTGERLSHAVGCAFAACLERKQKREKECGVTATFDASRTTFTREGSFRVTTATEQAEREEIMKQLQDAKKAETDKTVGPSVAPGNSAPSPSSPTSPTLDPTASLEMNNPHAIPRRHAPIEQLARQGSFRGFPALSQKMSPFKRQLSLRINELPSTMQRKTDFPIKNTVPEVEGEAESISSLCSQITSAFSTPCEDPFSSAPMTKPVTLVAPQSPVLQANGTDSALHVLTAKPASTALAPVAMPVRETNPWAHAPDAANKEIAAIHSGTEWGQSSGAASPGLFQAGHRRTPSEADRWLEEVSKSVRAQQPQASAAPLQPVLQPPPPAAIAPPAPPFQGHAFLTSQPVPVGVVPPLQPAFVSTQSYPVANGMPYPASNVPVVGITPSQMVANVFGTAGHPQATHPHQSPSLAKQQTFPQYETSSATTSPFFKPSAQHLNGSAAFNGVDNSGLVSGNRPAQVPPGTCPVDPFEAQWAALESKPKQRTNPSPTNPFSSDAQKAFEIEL

[2] = molecular target: T2, JNK-interacting protein-2 (JIP2) (rat (endogenous in H9C2)) (UniProt G3V9M2); assay: as above
T2 sequence: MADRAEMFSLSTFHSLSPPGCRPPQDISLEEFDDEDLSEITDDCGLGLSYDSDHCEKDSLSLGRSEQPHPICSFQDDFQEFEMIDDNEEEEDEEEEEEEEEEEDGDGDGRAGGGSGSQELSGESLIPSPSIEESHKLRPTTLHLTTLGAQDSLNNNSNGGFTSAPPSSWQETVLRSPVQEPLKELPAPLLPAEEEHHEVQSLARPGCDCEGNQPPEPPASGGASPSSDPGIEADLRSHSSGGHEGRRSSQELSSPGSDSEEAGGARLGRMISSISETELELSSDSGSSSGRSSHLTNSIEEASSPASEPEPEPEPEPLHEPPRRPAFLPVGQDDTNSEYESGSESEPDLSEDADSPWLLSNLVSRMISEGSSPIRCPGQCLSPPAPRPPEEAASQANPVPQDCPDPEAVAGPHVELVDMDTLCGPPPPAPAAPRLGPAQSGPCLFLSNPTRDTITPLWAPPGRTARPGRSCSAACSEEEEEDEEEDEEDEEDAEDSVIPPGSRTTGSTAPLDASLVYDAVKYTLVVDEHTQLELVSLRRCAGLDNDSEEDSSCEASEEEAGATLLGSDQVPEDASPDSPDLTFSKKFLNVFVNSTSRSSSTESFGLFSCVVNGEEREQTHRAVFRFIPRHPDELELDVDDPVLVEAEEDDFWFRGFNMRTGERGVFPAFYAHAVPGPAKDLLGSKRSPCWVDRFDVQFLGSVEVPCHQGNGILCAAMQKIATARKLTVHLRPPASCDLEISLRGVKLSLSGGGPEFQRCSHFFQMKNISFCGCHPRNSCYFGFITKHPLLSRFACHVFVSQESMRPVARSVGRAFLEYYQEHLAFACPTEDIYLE

B1: Lysosomal associated membrane protein 1 (LAMP1) (protein, UniProt P14562 22-407)
chain: APALFEVKDNNGTACIMASFSASFLTTYDAGHVSKVSNMTLPASAEVLKNSSSCGEKNASEPTLAITFGEGYLLKLTFTKNTTRYSVQHMYFTYNLSDTQFFPNASSKGPDTVDSTTDIKADINKTYRCVSDIRVYMKNVTIVLWDATIQAYLPSSNFSKEETRCPQDQPSPTTGPPSPSPPLVPTNPSVSKYNVTGDNGTCLLASMALQLNITYMKKDNTTVTRAFNINPSDKYSGTCGAQLVTLKVGNKSRVLELQFGMNATSSLFFLQGVQLNMTLPDAIEPTFSTSNYSLKALQASVGNSYKCNSEEHIFVSKALALNVFSVQVQAFRVESDRFGSVEECVQDGNNMLIPIAVGGALAGLVLIVLIAYLIGRKRSHAGYQTI
- binding [1]: binds
- binding [2]: binds

B2: protein numb homolog (NUMB) (protein, UniProt Q2LC84 1-652)
chain: MNKLRQSFRRKKDVYVPEASRPHQWQTDEEGVRTGKCSFPVKYLGHVEVDESRGMHICEDAVKRLKAERKFFKGFFGKTGKKAVKAVLWVSADGLRVVDEKTKDLIVDQTIEKVSFCAPDRNFDRAFSYICRDGTTRRWICHCFMAVKDTGERLSHAVGCAFAACLERKQKREKECGVTATFDASRTTFTREGSFRVTTATEQAEREEIMKQLQDAKKAETDKTVGPSVAPGNSAPSPSSPTSPTLDPTASLEMNNPHAIPRRHAPIEQLARQGSFRGFPALSQKMSPFKRQLSLRINELPSTMQRKTDFPIKNTVPEVEGEAESISSLCSQITSAFSTPCEDPFSSAPMTKPVTLVAPQSPVLQANGTDSALHVLTAKPASTALAPVAMPVRETNPWAHAPDAANKEIAAIHSGTEWGQSSGAASPGLFQAGHRRTPSEADRWLEEVSKSVRAQQPQASAAPLQPVLQPPPPAAIAPPAPPFQGHAFLTSQPVPVGVVPPLQPAFVSTQSYPVANGMPYPASNVPVVGITPSQMVANVFGTAGHPQATHPHQSPSLAKQQTFPQYETSSATTSPFFKPSAQHLNGSAAFNGVDNSGLVSGNRPAQVPPGTCPVDPFEAQWAALESKPKQRTNPSPTNPFSSDAQKAFEIEL
- binding [2]: binds

Source: publication PMC8876908
